Results published in publication PMC12726990.
These are yes or no findings as the source states them, for the method shown. Binding seen in cells or lysates may run through a third protein. Some binding calls cover weakened binding; strength is not graded here.

The chains behind the UniProt entries cited, without tags or fusion partners. Residues count along the entry.
UniProt P20138, residues 18-364: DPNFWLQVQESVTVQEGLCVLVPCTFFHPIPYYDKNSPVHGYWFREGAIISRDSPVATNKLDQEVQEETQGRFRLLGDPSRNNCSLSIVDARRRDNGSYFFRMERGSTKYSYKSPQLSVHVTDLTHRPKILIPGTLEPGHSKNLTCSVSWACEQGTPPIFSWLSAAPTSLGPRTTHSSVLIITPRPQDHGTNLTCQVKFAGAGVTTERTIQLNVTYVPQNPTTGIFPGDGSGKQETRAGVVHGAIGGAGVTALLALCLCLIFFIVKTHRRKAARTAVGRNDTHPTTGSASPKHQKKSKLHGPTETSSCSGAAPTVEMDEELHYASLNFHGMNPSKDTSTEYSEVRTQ
UniProt P10909, residues 23-449: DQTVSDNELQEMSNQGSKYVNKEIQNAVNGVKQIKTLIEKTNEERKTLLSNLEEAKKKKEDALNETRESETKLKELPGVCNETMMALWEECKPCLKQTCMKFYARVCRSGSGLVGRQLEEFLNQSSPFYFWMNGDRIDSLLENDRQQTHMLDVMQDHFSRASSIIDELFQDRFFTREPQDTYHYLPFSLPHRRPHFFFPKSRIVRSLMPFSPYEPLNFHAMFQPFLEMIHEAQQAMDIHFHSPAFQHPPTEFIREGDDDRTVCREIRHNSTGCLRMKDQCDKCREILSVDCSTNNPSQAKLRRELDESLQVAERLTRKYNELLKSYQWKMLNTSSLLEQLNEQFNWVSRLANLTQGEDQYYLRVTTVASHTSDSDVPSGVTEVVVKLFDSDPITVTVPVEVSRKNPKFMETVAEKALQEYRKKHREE

Key:
[1] = target: CD33, endogenous in human brain (human (endogenous in brain)) (UniProt P20138); test: co-IP; co-immunoprecipitation from AD and control human brain lysates
[2] = target: CD33, endogenous in human brain (human (endogenous in brain)) (UniProt P20138); test: proximity ligation; in situ proximity ligation assay on AD and control human brain

In the case of “Clusterin (CLU), endogenous in human brain (from UniProt P10909 23-449) (ligand)”, the binding [1] is reported as “binds” and the binding [2] is reported as “binds”.
